Data source: PubChem BioAssay AID1259308 (NCATS, 2017)

Screen: 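Knock-downs that increase output of a recombinant reporter protein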 (primary screen)
System: human HEK293 embryonic kidney cells stably expressing firefly luciferase (HEK-CMV-Luc2-Hygro)
Reagents: single siRNA against human genes, 0.8 pmol siRNA per well
Duration: 72 h
Measurement: 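Luciferase light (ONE-Glo) measured on one replicate plate set and viability (CellTiter-Glo) on the other, scaled to a negative control siRNA, with robust z-scores and luciferase per cell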
Direction: total luciferase, z-score: higher = more reporter protein produced
Hit rule: 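Active when the median/MAD z-score for overall luciferase is greater than 3; a gene was taken forward for validation with new siRNAs if at least two of its three siRNAs passed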
Meaning of the calls: active = raised luciferase; inactive = no rise
Shown is an unselected part of about 59,000 reagents. About 1,510 of them (2.6%) count as active. 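Calls use total luciferase alone and ignore viability, so some active siRNAs may act by altering cell number.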 The numbers tell different reagents against one gene apart. Further read-outs or replicates are left out here.

| total luciferase, z-score | outcome | target | siRNA no. |
| --- | --- | --- | --- |
| 1.12 | inactive | SERPINB6 | 1 |
| -0.166 | inactive | SERPINB6 | 2 |
| -0.383 | inactive | SERPINB6 | 3 |
| -0.0596 | inactive | KIR2DL5B | 1 |
| 1.08 | inactive | KIR2DL5B | 2 |
| 2.2 | inactive | KIR2DL5B | 3 |
| 0.298 | inactive | ZFP3 | 1 |
| -0.344 | inactive | ZFP3 | 2 |
| -0.0365 | inactive | ZFP3 | 3 |
| -0.198 | inactive | EHBP1 | 1 |
| 0.568 | inactive | EHBP1 | 2 |
| -2.1 | inactive | EHBP1 | 3 |
| 1.54 | inactive | CH25H | 1 |
| 0.341 | inactive | CH25H | 2 |
| 1.86 | inactive | CH25H | 3 |
| -1.18 | inactive | CDH4 | 1 |
| 3.27 | active | CDH4 | 2 |
| 0.254 | inactive | CDH4 | 3 |
| 1.39 | inactive | RXFP4 | 1 |
| 0.338 | inactive | RXFP4 | 2 |
| -1.36 | inactive | RXFP4 | 3 |
| -1.86 | inactive | STARD3NL | 1 |
| -0.614 | inactive | STARD3NL | 2 |
| -1.03 | inactive | STARD3NL | 3 |

Copied from the listing for reference:
| total luciferase, z-score | outcome | target | siRNA no. |
| --- | --- | --- | --- |
| 1.08 | inactive | KIR2DL5B | 2 |
| 2.2 | inactive | KIR2DL5B | 3 |
